{
  "sequences": {"note": "Sequences of proteins named here, by UniProt entry; tags and fusion partners are left off. A change or cut given only in a name is not applied to a line headed by its entry.", "UniProt P09110": "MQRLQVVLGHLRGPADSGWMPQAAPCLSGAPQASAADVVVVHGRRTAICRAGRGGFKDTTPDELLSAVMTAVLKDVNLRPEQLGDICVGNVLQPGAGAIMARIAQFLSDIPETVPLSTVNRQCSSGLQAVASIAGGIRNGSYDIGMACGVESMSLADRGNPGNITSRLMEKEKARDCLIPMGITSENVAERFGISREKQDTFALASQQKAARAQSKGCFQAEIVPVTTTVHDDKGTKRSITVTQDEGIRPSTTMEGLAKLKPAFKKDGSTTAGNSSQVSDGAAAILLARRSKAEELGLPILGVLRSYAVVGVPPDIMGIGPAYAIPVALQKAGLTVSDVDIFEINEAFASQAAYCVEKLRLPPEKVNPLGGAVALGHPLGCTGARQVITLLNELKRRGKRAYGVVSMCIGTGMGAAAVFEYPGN", "UniProt P53396": "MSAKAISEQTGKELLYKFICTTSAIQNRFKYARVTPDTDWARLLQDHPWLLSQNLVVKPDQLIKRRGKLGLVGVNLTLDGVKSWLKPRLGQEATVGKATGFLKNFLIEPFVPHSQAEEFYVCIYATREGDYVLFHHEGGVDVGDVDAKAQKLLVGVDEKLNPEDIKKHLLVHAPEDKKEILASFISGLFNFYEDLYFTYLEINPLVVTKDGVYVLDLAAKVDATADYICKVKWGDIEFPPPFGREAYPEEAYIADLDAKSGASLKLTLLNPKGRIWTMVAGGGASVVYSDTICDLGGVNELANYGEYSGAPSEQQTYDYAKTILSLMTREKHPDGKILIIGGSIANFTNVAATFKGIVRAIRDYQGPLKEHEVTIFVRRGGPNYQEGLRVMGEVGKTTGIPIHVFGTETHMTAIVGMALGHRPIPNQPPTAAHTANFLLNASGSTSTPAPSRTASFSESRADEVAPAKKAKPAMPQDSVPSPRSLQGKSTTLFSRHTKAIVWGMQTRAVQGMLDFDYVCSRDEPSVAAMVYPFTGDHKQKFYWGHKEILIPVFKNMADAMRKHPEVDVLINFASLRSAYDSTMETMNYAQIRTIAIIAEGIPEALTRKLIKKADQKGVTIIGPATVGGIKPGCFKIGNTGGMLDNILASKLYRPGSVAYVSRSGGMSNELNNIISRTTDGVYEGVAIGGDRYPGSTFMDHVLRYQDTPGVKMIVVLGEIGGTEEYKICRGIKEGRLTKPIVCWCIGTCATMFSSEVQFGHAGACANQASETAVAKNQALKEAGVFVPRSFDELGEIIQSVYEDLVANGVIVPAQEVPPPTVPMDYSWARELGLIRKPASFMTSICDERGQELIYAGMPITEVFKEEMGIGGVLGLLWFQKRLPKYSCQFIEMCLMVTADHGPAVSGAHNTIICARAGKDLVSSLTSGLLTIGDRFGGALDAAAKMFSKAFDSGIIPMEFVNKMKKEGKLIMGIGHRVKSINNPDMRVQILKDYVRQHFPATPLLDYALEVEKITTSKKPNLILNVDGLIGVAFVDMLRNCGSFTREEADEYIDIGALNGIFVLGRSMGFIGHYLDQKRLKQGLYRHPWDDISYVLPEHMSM", "UniProt Q99541": "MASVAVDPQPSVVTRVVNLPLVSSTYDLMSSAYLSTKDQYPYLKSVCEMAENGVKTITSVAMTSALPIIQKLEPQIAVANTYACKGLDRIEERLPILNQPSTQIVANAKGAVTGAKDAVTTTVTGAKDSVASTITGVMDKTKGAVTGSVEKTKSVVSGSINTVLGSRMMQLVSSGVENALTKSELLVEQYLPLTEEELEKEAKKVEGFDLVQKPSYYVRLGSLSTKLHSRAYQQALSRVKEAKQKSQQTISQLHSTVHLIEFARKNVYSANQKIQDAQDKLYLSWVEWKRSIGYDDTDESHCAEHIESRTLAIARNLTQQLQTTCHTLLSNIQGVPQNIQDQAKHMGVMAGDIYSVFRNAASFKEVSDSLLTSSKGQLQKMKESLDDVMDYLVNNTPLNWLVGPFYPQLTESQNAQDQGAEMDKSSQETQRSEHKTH", "UniProt Q9H845": "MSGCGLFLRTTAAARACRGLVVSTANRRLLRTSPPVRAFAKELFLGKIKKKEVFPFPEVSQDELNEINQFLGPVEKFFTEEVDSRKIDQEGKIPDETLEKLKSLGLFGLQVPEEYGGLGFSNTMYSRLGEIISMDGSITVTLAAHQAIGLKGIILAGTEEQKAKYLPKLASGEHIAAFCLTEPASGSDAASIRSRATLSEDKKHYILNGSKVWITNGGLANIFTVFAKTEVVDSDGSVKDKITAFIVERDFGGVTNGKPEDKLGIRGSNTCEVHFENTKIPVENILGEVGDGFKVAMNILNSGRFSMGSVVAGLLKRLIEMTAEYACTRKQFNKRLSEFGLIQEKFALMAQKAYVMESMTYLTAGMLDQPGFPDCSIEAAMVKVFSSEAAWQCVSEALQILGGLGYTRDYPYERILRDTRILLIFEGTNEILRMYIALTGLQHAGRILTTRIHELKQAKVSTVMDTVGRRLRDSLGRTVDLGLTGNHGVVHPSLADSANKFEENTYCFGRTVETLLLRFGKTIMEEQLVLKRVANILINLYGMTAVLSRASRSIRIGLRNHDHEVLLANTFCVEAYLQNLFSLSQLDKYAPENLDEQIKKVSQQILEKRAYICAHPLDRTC", "UniProt P24752": "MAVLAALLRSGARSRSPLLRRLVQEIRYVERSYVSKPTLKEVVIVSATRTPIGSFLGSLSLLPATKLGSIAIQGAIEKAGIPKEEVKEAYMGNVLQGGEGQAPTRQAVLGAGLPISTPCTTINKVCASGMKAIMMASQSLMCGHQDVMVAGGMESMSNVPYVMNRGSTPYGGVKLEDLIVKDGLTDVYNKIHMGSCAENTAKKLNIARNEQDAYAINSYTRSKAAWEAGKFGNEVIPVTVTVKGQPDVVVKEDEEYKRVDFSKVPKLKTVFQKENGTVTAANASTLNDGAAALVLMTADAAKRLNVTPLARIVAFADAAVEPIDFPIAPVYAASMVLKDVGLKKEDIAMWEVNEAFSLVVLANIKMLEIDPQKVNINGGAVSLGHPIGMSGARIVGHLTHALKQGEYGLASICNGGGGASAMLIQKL", "UniProt O60266": "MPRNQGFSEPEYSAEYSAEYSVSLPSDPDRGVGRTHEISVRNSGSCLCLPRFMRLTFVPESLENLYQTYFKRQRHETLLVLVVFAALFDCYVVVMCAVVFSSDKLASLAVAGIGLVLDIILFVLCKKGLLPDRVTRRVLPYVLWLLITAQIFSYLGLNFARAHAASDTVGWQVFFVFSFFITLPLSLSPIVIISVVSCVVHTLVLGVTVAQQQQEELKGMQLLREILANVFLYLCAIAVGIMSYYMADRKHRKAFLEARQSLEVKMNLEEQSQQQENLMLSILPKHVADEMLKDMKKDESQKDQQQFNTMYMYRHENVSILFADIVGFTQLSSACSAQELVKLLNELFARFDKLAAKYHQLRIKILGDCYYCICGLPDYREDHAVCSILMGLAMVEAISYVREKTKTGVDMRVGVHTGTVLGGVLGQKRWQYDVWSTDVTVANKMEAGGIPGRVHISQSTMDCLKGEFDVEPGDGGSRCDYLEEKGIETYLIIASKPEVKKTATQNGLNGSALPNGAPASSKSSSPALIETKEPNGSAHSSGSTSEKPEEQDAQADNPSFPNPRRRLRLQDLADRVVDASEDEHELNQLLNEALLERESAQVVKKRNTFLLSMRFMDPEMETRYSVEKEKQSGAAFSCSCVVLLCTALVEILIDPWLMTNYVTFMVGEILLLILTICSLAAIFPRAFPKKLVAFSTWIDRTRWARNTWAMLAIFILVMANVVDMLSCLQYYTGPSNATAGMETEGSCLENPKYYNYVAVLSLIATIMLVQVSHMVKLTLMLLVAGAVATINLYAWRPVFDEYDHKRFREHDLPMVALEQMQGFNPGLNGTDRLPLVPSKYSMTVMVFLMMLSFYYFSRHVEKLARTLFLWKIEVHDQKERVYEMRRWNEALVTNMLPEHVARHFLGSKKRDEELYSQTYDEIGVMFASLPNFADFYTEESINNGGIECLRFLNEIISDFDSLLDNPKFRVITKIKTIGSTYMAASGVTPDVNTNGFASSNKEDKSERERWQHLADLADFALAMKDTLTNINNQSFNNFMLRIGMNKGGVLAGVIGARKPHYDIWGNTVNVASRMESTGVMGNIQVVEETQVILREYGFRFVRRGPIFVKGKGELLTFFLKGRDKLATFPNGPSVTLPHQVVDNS", "UniProt Q16186": "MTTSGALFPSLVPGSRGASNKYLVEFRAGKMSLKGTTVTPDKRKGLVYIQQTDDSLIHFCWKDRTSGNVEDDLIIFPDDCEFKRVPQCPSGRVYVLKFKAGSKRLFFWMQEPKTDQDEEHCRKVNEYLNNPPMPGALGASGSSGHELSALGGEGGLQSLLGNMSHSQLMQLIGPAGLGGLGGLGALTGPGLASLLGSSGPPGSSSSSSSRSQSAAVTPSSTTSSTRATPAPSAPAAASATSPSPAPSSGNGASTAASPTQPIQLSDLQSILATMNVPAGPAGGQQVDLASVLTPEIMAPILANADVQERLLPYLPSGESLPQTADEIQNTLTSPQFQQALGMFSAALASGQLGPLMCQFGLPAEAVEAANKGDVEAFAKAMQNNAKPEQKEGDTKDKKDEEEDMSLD", "UniProt P24666": "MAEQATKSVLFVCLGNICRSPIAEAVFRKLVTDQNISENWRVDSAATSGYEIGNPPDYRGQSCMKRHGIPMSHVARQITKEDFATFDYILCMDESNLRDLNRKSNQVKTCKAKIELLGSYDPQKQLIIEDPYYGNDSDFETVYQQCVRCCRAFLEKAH", "UniProt O75689": "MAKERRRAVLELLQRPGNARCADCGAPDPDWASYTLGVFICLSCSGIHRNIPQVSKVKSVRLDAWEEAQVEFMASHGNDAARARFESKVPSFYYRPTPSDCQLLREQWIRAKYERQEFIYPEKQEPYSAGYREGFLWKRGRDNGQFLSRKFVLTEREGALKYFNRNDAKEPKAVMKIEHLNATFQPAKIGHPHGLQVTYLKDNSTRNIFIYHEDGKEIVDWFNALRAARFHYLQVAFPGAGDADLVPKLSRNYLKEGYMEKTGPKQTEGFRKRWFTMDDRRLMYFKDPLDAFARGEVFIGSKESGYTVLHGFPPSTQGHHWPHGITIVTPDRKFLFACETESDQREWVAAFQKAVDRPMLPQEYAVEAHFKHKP", "UniProt Q9NUQ8": "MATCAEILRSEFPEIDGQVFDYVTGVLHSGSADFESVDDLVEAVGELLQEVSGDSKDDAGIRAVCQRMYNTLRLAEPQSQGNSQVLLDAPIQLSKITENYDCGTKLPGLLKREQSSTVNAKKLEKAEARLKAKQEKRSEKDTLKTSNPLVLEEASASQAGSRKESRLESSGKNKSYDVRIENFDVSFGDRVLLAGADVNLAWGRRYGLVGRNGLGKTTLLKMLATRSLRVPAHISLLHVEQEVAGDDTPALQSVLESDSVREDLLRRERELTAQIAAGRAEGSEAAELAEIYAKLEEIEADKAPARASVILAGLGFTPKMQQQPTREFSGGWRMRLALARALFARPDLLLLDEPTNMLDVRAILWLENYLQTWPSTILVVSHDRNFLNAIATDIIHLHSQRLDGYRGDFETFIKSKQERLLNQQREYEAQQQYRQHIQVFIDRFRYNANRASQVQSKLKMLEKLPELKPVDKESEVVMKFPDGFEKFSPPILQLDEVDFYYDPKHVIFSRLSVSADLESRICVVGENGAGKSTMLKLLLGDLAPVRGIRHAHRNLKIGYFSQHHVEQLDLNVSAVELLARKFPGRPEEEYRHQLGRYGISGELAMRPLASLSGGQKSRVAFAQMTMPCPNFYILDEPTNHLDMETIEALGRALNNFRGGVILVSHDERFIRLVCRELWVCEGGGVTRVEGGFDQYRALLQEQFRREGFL", "UniProt P35612": "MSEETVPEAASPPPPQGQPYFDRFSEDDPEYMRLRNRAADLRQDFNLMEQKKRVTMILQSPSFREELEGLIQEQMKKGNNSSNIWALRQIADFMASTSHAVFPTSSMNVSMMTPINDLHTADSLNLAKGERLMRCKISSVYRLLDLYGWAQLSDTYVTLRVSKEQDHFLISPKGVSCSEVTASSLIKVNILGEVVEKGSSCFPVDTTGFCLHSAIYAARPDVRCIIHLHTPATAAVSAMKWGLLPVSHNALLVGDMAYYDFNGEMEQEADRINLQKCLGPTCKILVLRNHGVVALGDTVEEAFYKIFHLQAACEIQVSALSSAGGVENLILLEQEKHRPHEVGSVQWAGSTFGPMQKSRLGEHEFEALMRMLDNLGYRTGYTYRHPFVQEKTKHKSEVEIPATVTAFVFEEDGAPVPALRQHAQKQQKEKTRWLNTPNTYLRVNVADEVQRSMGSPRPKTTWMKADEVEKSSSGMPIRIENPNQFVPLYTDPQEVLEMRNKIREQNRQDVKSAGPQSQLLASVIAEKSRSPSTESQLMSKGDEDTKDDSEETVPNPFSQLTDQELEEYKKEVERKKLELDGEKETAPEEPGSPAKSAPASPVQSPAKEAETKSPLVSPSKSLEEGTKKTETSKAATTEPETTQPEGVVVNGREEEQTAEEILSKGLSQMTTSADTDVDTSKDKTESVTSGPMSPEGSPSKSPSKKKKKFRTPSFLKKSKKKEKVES"},
  "source": "the supplement of paper PMC7666118",
  "note": "Some of the results follow.",
  "data": [
    {"compound": "COc1ccc(Cn2ccc3cc(C)c(C(=O)NO)cc32)cc1", "test": "dose-dependent thermal stabilisation call (2D-TPP, DLPTP, 10% FDR) (binary (1 = stabilised)); higher = stabilised by the compound", "details": "system: HL-60 intact cells; concentration range 0.04-10 µM", "protocol": "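2D thermal proteome profiling in intact HL-60 cells treated with BRD-3811 (0, 0.04, 0.29, 2, 10 uM) for 90 min at 37 C, then heated 3 min at one of 12 temperatures (42-63.9 C). Soluble protein was quantified by TMT10 MS. The value is the DLPTP call of the paper: dose-dependent thermal stabilisation over all temperatures at 10% FDR (F-test of a dose-response against a flat model); one experiment, one call per tested protein.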", "values": [
      {"target": "42 KDA PROTEIN.", "dose-dependent thermal stabilisation call": "inactive: 0"},
      {"target": "ACAA1 (UniProt P09110)", "dose-dependent thermal stabilisation call": "active: 1"},
      {"target": "ACLY (UniProt P53396)", "dose-dependent thermal stabilisation call": "inactive: 0"},
      {"target": "CEBPZOS HUMAN (UniProt A8MTT3)", "dose-dependent thermal stabilisation call": "inactive: 0"},
      {"target": "ABCC5 (UniProt O15440)", "dose-dependent thermal stabilisation call": "inactive: 0"},
      {"target": "ADFP (UniProt Q99541)", "dose-dependent thermal stabilisation call": "inactive: 0"},
      {"target": "ACSS2 (UniProt Q9NR19)", "dose-dependent thermal stabilisation call": "inactive: 0"},
      {"target": "ADSL (UniProt P30566)", "dose-dependent thermal stabilisation call": "active: 1"},
      {"target": "AAK1 (UniProt Q2M2I8)", "dose-dependent thermal stabilisation call": "inactive: 0"},
      {"target": "ACAD9 (UniProt Q9H845)", "dose-dependent thermal stabilisation call": "inactive: 0"},
      {"target": "ACOX3 (UniProt O15254)", "dose-dependent thermal stabilisation call": "active: 1"},
      {"target": "ACY1 (UniProt Q03154)", "dose-dependent thermal stabilisation call": "inactive: 0"},
      {"target": "A2M (UniProt P01023)", "dose-dependent thermal stabilisation call": "inactive: 0"},
      {"target": "AARS (UniProt P49588)", "dose-dependent thermal stabilisation call": "inactive: 0"},
      {"target": "ACAT1 (UniProt P24752)", "dose-dependent thermal stabilisation call": "inactive: 0"},
      {"target": "ADCY3 (UniProt O60266)", "dose-dependent thermal stabilisation call": "inactive: 0"},
      {"target": "ABCA2 (UniProt Q9BZC7)", "dose-dependent thermal stabilisation call": "inactive: 0"},
      {"target": "ACOT7 (UniProt O00154)", "dose-dependent thermal stabilisation call": "inactive: 0"},
      {"target": "ABHD13 (UniProt Q7L211)", "dose-dependent thermal stabilisation call": "inactive: 0"},
      {"target": "ACAD8 (UniProt Q9UKU7)", "dose-dependent thermal stabilisation call": "inactive: 0"},
      {"target": "ADRM1 (UniProt Q16186)", "dose-dependent thermal stabilisation call": "inactive: 0"},
      {"target": "AARSD1 (UniProt Q9BTE6)", "dose-dependent thermal stabilisation call": "inactive: 0"},
      {"target": "ACP1 (UniProt P24666)", "dose-dependent thermal stabilisation call": "inactive: 0"},
      {"target": "ACBD5 (UniProt Q5T8D3)", "dose-dependent thermal stabilisation call": "inactive: 0"},
      {"target": "ACTR10 (UniProt Q9NZ32)", "dose-dependent thermal stabilisation call": "inactive: 0"},
      {"target": "ACTR3B (UniProt Q9P1U1)", "dose-dependent thermal stabilisation call": "inactive: 0"},
      {"target": "ADAR (UniProt P55265)", "dose-dependent thermal stabilisation call": "inactive: 0"},
      {"target": "ABL2 (UniProt P42684)", "dose-dependent thermal stabilisation call": "inactive: 0"},
      {"target": "ABI2 (UniProt Q9NYB9)", "dose-dependent thermal stabilisation call": "inactive: 0"},
      {"target": "ACP2 (UniProt P11117)", "dose-dependent thermal stabilisation call": "inactive: 0"},
      {"target": "ACTR2 (UniProt P61160)", "dose-dependent thermal stabilisation call": "inactive: 0"},
      {"target": "ACTN1 (UniProt P12814)", "dose-dependent thermal stabilisation call": "inactive: 0"},
      {"target": "AAMP (UniProt Q13685)", "dose-dependent thermal stabilisation call": "inactive: 0"},
      {"target": "ADA (UniProt P00813)", "dose-dependent thermal stabilisation call": "inactive: 0"},
      {"target": "ACADSB (UniProt P45954)", "dose-dependent thermal stabilisation call": "inactive: 0"},
      {"target": "ADAP1 (UniProt O75689)", "dose-dependent thermal stabilisation call": "inactive: 0"},
      {"target": "ABCF3 (UniProt Q9NUQ8)", "dose-dependent thermal stabilisation call": "inactive: 0"},
      {"target": "ACO1 (UniProt P21399)", "dose-dependent thermal stabilisation call": "inactive: 0"},
      {"target": "ABHD14B (UniProt Q96IU4)", "dose-dependent thermal stabilisation call": "inactive: 0"},
      {"target": "ADD2 (UniProt P35612)", "dose-dependent thermal stabilisation call": "inactive: 0"}
    ]}
  ]
}
